Results reported in PubChem BioAssay AID280 (DTP/NCI, 2004).
The list does not hold the whole screen: it is rich in T/C values a quarter to a half above the control, in often repeated tests (any T/C) and in doses without a T/C. Other doses and runs of a compound stand elsewhere. T/C is the treated group as % of the vehicle group. Some doses have a count of surviving animals in place of a T/C: the source holds a T/C of zero for them, seemingly a mark for toxic or unscored doses. Some doses without a T/C left all or most animals alive at the check, yet need not have been tolerated: the source hardly ever lists a survival T/C far under the control, and the zero likely stands for such cases as well. Counts of survivors are from the toxicity check (mostly the fifth day) where no day follows; animals may have died later. Schedules are NCI's codes, read here as Q, the interval in days (D) or hours (H), X, the number of doses. Some structures stand for samples that the source files as different forms (salt, stereo form or complex); doses refer to the form tested. Some doses were run more than once; the results are listed from low to high. For survival time, this PubChem deposit counts one and a half times the control or more as active, and values a quarter to a half above the control carry no call in these data; other NCI protocols may use other cut-offs. Brackets with × stand for listed records that agree. Some T/C values carry the count of animals alive at the toxicity check (mostly the fifth day); without a count, all were alive then.

Test system: nude mice, LOX melanoma ip, survival T/C
Assay: NCI In Vivo Anticancer Drug Screen. Data for tumor model Human Amelanotic Melanoma (LOX) (intraperitoneal) in NU/NU BALB/C (nude) mice
Settings: T/C endpoint: median survival time, higher T/C = longer survival
Experimental: The antitumor activity of compounds was measured in mice bearing transplantable tumors. Survival or tumor size were measured and the results are expressed as the measurement made in the treated group (T) divided by the measurement made in the vehicle treated control group (C). The tumor model used in this assay is Human Amelanotic Melanoma (LOX) (intraperitoneal) in NU/NU BALB/C (nude) mice

[1] = dose: 100.0 mg/kg/injection, schedule: Q04DX003 (ip), vehicle: water
[2] = dose: 1200.0 mg/kg/injection, schedule: Q04DX003 (ip), vehicle: saline with Tween-80
[3] = dose: 120.0 mg/kg/injection, schedule: Q04DX003 (ip), vehicle: saline with Tween-80
[4] = dose: 75.0 mg/kg/injection, schedule: Q04DX003 (ip), vehicle: saline with Tween-80
[5] = dose: 300.0 mg/kg/injection, schedule: Q04DX003 (ip), vehicle: saline with Tween-80
[6] = dose: 600.0 mg/kg/injection, schedule: Q04DX003 (ip), vehicle: saline with Tween-80
[7] = dose: 100.0 mg/kg/injection, schedule: Q04DX003 (ip), vehicle: saline with Tween-80
[8] = dose: 3.47 mg/kg/injection, schedule: Q04DX003 (ip), vehicle: other

CCCCOCN(COCCCC)C12CC3CC(CC(C3)C1)C2
survivor count (dose: 800.0 mg/kg/injection, schedule: Q04DX003 (ip), vehicle: saline with Tween-80): 0 of 6 on day 10

COc1ccc2c(c1)-c1nn(CCCN(C)C)c3ccc([N+](=O)[O-])c(c13)N2
T/C (dose: 29.7 mg/kg/injection, schedule: Q04DX003 (ip), vehicle: water): 127 % of control | T/C (dose: 29.7 mg/kg/injection, schedule: Q04HX006 (ip), vehicle: water): 129 % of control | T/C (dose: 66.7 mg/kg/injection, schedule: Q04DX003 (ip), vehicle: water): 132 % of control | survivor count (dose: 66.7 mg/kg/injection, schedule: Q04HX006 (ip), vehicle: water): 5 of 6 on day 10 | T/C [1]: 125 % of control | survivor count [1]: 1 of 6 on day 10 and 6 of 6 on day 10 | survivor count (dose: 166.66 mg/kg/injection, schedule: Q04DX003 (ip), vehicle: water): 0 of 6 on day 10 and 2 of 6 on day 10

CN(C)CN1C(=O)S/C(=C2\C(=O)N(CN(C)C)c3ccccc32)C1=O
survivor count (dose: 400.0 mg/kg/injection, schedule: Q04DX003 (ip), vehicle: Klucel (hydroxypropylcellulose) (HPC)): 1 of 6 on day 10 | survivor count (dose: 800.0 mg/kg/injection, schedule: Q04DX003 (ip), vehicle: Klucel (hydroxypropylcellulose) (HPC)): 0 of 6 on day 10

O=C(O)c1cc(C(=O)O)c(C(=O)O)cc1C(=O)O.[NH2-].[NH2-].[NH2-].[NH2-].[Pt+2].[Pt+2]
survivor count [1]: 1 of 6 on day 10

S=C(NCNC(=S)c1ccncc1)c1ccncc1
survivor count [2]: 2 of 6 on day 10

NCc1cc(O)c(O)c(O)c1
survivor count (dose: 300.0 mg/kg/injection, schedule: Q04DX003 (ip), vehicle: saline): 6 of 6 on day 10 | survivor count (dose: 1200.0 mg/kg/injection, schedule: Q04DX003 (ip), vehicle: saline): 2 of 6 on day 10

CC1(C)Nc2cc3c(cc2-n2cccc21)oc1ccccc13
survivor count (dose: 600.0 mg/kg/injection, schedule: Q04DX003 (ip), vehicle: DMSO): 6 of 6 on day 10

COc1cccc2c1C(=O)C1=C(C2=O)c2c(O)cc(CO)cc2C(O)C1O (stereo not given)
survivor count (dose: 100.0 mg/kg/injection, schedule: Q04DX003 (ip), vehicle: saline + Tween-80 + alcohol): 3 of 6 on day 10

CCCCN1C(=O)N(c2ccc(OCC)cc2)C2N(CCCC)C1C(C)(C)C2(C)C (stereo not given)
survivor count [3]: 6 of 6 on day 10 | survivor count (dose: 240.0 mg/kg/injection, schedule: Q04DX003 (ip), vehicle: saline with Tween-80): 0 of 6 on day 10 | survivor count (dose: 480.0 mg/kg/injection, schedule: Q04DX003 (ip), vehicle: saline with Tween-80): 0 of 6 on day 10 | survivor count (dose: 960.0 mg/kg/injection, schedule: Q04DX003 (ip), vehicle: saline with Tween-80): 0 of 6 on day 10

C/C(=N\NC(=O)c1ccccc1O)c1cccc(/C(C)=N/NC(=O)c2ccccc2O)n1
T/C (dose: 12.5 mg/kg/injection, schedule: Q04DX003 (ip), vehicle: saline): 143 % of control | T/C (dose: 25.0 mg/kg/injection, schedule: Q04DX003 (ip), vehicle: saline): 127 % of control | survivor count (dose: 200.0 mg/kg/injection, schedule: Q04DX003 (ip), vehicle: saline): 6 of 6 on day 10

Cc1c(N)nc([C@H](CC(N)=O)NC[C@H](N)C(N)=O)nc1C(=O)N[C@H](C(=O)N[C@H](C)[C@@H](O)[C@H](C)C(=O)N[C@H](C(=O)NCCc1nc(-c2nc(C(=O)NCCC[S+](C)C)cs2)cs1)[C@@H](C)O)C(OC1OC(CO)C(O)C(O)C1OC1OC(CO)C(O)C(OC(N)=O)C1O)c1cnc[nH]1 (stereo not given in full)
T/C (dose: 16.0 mg/kg/injection, schedule: Q01DX001 (ip), vehicle: saline): 134 % of control | survivor count (dose: 32.0 mg/kg/injection, schedule: Q01DX015 (ip), vehicle: saline): 6 of 6 on day 10 | survivor count (dose: 64.0 mg/kg/injection, schedule: Q01DX005 (ip), vehicle: saline): 0 of 6 on day 10 | survivor count (dose: 128.0 mg/kg/injection, schedule: Q04DX003 (ip), vehicle: saline): 0 of 6 on day 10 | survivor count (dose: 256.0 mg/kg/injection, schedule: Q01DX001 (ip), vehicle: saline): 0 of 6 on day 10

CCCCCCNc1nc(NCCCCCC)c2[nH]c(NCCCCCC)nc2n1
T/C [4]: 127 % of control | T/C [5]: 127 % of control | survivor count [6]: 1 of 6 on day 10

COc1c2c(c(O)c3c4c(c(C)cc13)C1OC3(C(OC)OC5CC(C)(O)C(OC6CC(C)(O)C(O)C(C)O6)C(C)O5)OC1C(OC)(O4)C31CO1)C(=O)C(O)CC2OC1CC(C)(O)C(OC(C)=O)C(C)O1 (stereo not given)
survivor count (dose: 100.0 micrograms/kg/injection, schedule: Q04DX003 (ip), vehicle: saline): 1 of 6 on day 10 | survivor count (dose: 200.0 micrograms/kg/injection, schedule: Q04DX003 (ip), vehicle: saline): 0 of 6 on day 10

NC(N)=NS(=O)(=O)c1ccc(NCc2c3ccccc3nc3ccccc23)cc1
T/C (dose: 75.0 mg/kg/injection, schedule: Q04DX003 (ip), vehicle: Klucel (hydroxypropylcellulose) (HPC)): 149 % of control | T/C (dose: 150.0 mg/kg/injection, schedule: Q04DX003 (ip), vehicle: Klucel (hydroxypropylcellulose) (HPC)): 129 % of control | T/C (dose: 300.0 mg/kg/injection, schedule: Q04DX003 (ip), vehicle: Klucel (hydroxypropylcellulose) (HPC)): 134 % of control

CCOC(=O)C(N)C[S][Sn]([CH3])([CH3])[Cl] (stereo not given)
survivor count [7]: 1 of 6 on day 10 | survivor count (dose: 200.0 mg/kg/injection, schedule: Q04DX003 (ip), vehicle: saline with Tween-80): 0 of 6 on day 10

CCN(CC)CC(=O)O[C@]1(CC)C(=O)OCc2c1cc1n(c2=O)Cc2cc3ccccc3nc2-1
survivor count (dose: 37.5 mg/kg/injection, schedule: Q04DX003 (ip), vehicle: water): 2 of 6 on day 10 | survivor count (dose: 75.0 mg/kg/injection, schedule: Q04DX003 (ip), vehicle: water): 0 of 6 on day 10 | survivor count (dose: 150.0 mg/kg/injection, schedule: Q04DX003 (ip), vehicle: water): 0 of 6 on day 10 | survivor count (dose: 300.0 mg/kg/injection, schedule: Q04DX003 (ip), vehicle: water): 0 of 6 on day 10

O=C1c2c(O)ccc(O)c2C(=O)c2c(NCCNCCO)ccc(NCCNCCO)c21
T/C [8]: 131 % of control [5 of 6 alive on day 10] (2×) | survivor count [8]: 4 of 6 on day 10 | survivor count (dose: 5.0 mg/kg/injection, schedule: Q04DX003 (ip), vehicle: water): 6 of 6 on day 10 | survivor count (dose: 10.0 mg/kg/injection, schedule: Q04DX003 (ip), vehicle: water): 6 of 6 on day 10 | survivor count (dose: 20.0 mg/kg/injection, schedule: Q04DX003 (ip), vehicle: water): 0 of 6 on day 10

Cc1nc(C(Cl)(Cl)Cl)[nH]c(=O)c1SCCO
survivor count (dose: 1200.0 mg/kg/injection, schedule: Q04DX003 (ip), vehicle: distilled water + Tween-80 + alcohol): 0 of 6 on day 10

NC(Cc1ccc(N(CCCl)Cc2ccccc2)cc1)C(=O)O (stereo not given)
T/C (dose: 43.0 mg/kg/injection, schedule: Q04DX003 (ip), vehicle: saline with Tween-80): 128 % of control | T/C (dose: 72.0 mg/kg/injection, schedule: Q04DX003 (ip), vehicle: saline with Tween-80): 127 % of control | T/C [7]: 132 % of control | T/C [3]: 144 % of control | survivor count (dose: 333.0 mg/kg/injection, schedule: Q04DX003 (ip), vehicle: saline with Tween-80): 3 of 6 on day 10 | survivor count (dose: 400.0 mg/kg/injection, schedule: Q04DX003 (ip), vehicle: saline with Tween-80): 3 of 6 on day 10

CC(CNC(=O)C12CC3CC(CC(C3)C1)C2)NC(=O)C12CC3CC(CC(C3)C1)C2 (stereo not given)
survivor count (dose: 400.0 mg/kg/injection, schedule: Q04DX003 (ip), vehicle: DMSO): 6 of 6 on day 10

O=C(NNC(=O)c1cccc(C(=O)NNC(=O)c2ccc(Cl)c(Cl)c2)n1)c1ccc(Cl)c(Cl)c1
T/C [4]: 125 % of control (2×) | T/C (dose: 150.0 mg/kg/injection, schedule: Q04DX003 (ip), vehicle: saline with Tween-80): 131 and 136 % of control | T/C [5]: 133 and 140 % of control | T/C [6]: 126 [4 of 6 alive on day 10] and 145 % of control [5 of 6 alive on day 10] | survivor count [2]: 0 of 6 on day 10
